Measurements: PubChem BioAssay AID328 (DTP/NCI, 2004)
The list does not hold the whole screen: it gathers tests that were run many times, whatever their T/C, doses with no T/C, and many T/C values between a quarter and a half above the control. Other doses and runs of a compound stand elsewhere. T/C is the treated group as % of the vehicle group. Some doses have a count of surviving animals in place of a T/C: the source holds a T/C of zero for them, seemingly a mark for toxic or unscored doses. Some doses without a T/C left all or most animals alive at the check, yet need not have been tolerated: the source hardly ever lists a survival T/C far under the control, and the zero likely stands for such cases as well. Counts of survivors are from the toxicity check (mostly the fifth day) where no day follows; animals may have died later. Schedule codes are those of the source, taken here to give the interval after Q, in days (D) or hours (H), and the number of doses after X. For survival time, this PubChem deposit counts one and a half times the control or more as active, and values a quarter to a half above the control carry no call in these data; other NCI protocols may use other cut-offs. Some doses were run more than once; their values stand side by side, smallest first. Some T/C values are followed by the survivors on the day toxicity was checked, most often the fifth; where none is given, no animal had died by that day.

Test system: BDF1 mice, P388 leukemia ip, median survival T/C
Assay: NCI In Vivo Anticancer Drug Screen. Data for tumor model P388 Leukemia (intraperitoneal) in B6D2F1 (BDF1) mice
Details: T/C endpoint: median survival time, higher T/C = longer survival
Procedure, shortened: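 Transplantable tumour in mice; compound vs vehicle dosing; survival scored; ratio of treated to control reported.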

For `C=C(C)C12CC(COC(=O)c3ccccc3)C34OC5(OC1C3C1OC1(CO)C(O)C1(O)C(OC(=O)c3ccccc3)C(C)C(C(C)CCCCCCC5O)C14)O2` (stereo not drawn), the T/C (dose: 0.37 mg/kg/injection, schedule: Q01DX009 (ip), vehicle: saline) was 136 % of control, the T/C (dose: 1.0 mg/kg/injection, schedule: Q01DX009 (ip), vehicle: saline) was 136 % of control [5 of 6 alive] and the T/C (dose: 1.6 micrograms/kg/injection, schedule: Q01DX009 (ip), vehicle: gum acacia) was 135 % of control. For the same compound, the T/C (dose: 3.1 micrograms/kg/injection, schedule: Q01DX009 (ip), vehicle: gum acacia) was 135 % of control, the T/C (dose: 4.0 micrograms/kg/injection, schedule: Q01DX009 (ip), vehicle: saline + alcohol) was 131 % of control and the survivor count (dose: 6.3 micrograms/kg/injection, schedule: Q01DX009 (ip), vehicle: saline with Tween-80) was 5 of 6. The T/C (dose: 8.0 micrograms/kg/injection, schedule: Q01DX009 (ip), vehicle: saline + alcohol) was 139 % of control, the survivor count (dose: 12.5 micrograms/kg/injection, schedule: Q01DX009 (ip), vehicle: saline with Tween-80) was 1 of 6 and the T/C (dose: 16.0 micrograms/kg/injection, schedule: Q01DX009 (ip), vehicle: saline + alcohol) was 137 % of control [5 of 6 alive]. The survivor count (dose: 25.0 micrograms/kg/injection, schedule: Q01DX009 (ip), vehicle: saline + alcohol) was 5 of 6, the survivor count (dose: 25.0 micrograms/kg/injection, schedule: Q01DX009 (ip), vehicle: saline with Tween-80) was 1 of 6 and the survivor count (dose: 32.0 micrograms/kg/injection, schedule: Q01DX009 (ip), vehicle: saline + alcohol) was 6 of 6. For the same compound, the survivor count (dose: 50.0 micrograms/kg/injection, schedule: Q01DX009 (ip), vehicle: saline + alcohol) was 5 of 6, the survivor count (dose: 50.0 micrograms/kg/injection, schedule: Q01DX009 (ip), vehicle: saline with Tween-80) was 0 of 6 and the survivor count (dose: 64.0 micrograms/kg/injection, schedule: Q01DX009 (ip), vehicle: saline + alcohol) was 0 of 6. For the same compound, the T/C (dose: 100.0 micrograms/kg/injection, schedule: Q01DX009 (ip), vehicle: gum acacia) was 131 % of control, the survivor count (dose: 100.0 micrograms/kg/injection, schedule: Q01DX009 (ip), vehicle: saline + alcohol) was 0 of 6 and the survivor count (dose: 100.0 micrograms/kg/injection, schedule: Q01DX009 (ip), vehicle: saline with Tween-80) was 0 of 6. The survivor count (dose: 128.0 micrograms/kg/injection, schedule: Q01DX009 (ip), vehicle: saline + alcohol) was 0 of 6.
`Nc1ccc2ccccc2c1N=Nc1ccccc1` was tested, and the T/C (dose: 264.0 mg/kg/injection, schedule: Q04DX003 (ip), vehicle: Klucel (hydroxypropylcellulose) (HPC)) was 133 % of control and the T/C (dose: 400.0 mg/kg/injection, schedule: Q04DX003 (ip), vehicle: Klucel (hydroxypropylcellulose) (HPC)) was 128 and 133 % of control.
`Cn1cc(/C=C\C(=O)O)c2nccnc21` was tested, and the survivor count (dose: 50.0 mg/kg/injection, schedule: Q01DX009 (ip), vehicle: water) was 5 of 6 and the survivor count (dose: 200.0 mg/kg/injection, schedule: Q01DX009 (ip), vehicle: water) was 5 of 6.
